Assay results published in PMC7397750, “Angiopoietin-like protein 8 differentially regulates ANGPTL3 and ANGPTL4 during postprandial partitioning of fatty acids[S]” (Journal of Lipid Research, 2020).
These are yes or no findings as the source states them, for the method shown. For some assays here: Binding seen in cells or lysates may run through a third protein. Some entries that bind do so weakly or less than the wild type.

Experiments:
[1] = target: T1, ANGPTL8 (angiopoietin-like protein 8), endogenous in human serum (human (endogenous in serum)) (UniProt Q6UXH0); experiment: ELISA; MSD electrochemiluminescence sandwich immunoassays on human serum: ANGPTL3/8 assay with capture antibody to ANGPTL8 and detection antibody to ANGPTL3; ANGPTL4/8 assay with capture antibody to ANGPTL4 and detection antibody to ANGPTL8; assay buffer 50 mmol/l HEPES pH 7.40, 150 mmol/l NaCl, Triton X-100, EDTA, EGTA; RT
T1 sequence: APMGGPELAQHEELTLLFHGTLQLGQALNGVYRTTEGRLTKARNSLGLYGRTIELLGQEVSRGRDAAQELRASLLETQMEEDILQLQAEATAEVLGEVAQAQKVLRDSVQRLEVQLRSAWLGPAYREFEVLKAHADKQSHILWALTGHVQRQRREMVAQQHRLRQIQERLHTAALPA

[2] = target: T1, ANGPTL8 (angiopoietin-like protein 8), endogenous in human serum (human (endogenous in serum)); experiment: co-IP; anti-ANGPTL8, anti-ANGPTL4 (N-terminal) and anti-ANGPTL3 antibodies covalently coupled to tosyl-activated beads; pooled human donor serum diluted 1:2 with PBS, 4°C overnight; Western blot with biotinylated anti-ANGPTL antibodies

binding [1]: binds
binding [2]: binds
B1: ANGPTL4 (angiopoietin-like protein 4), endogenous in human serum, N-terminally intact (natural protein, human (endogenous in serum), UniProt Q9BY76-1 26-406, looked up)
chain: GPVQSKSPRFASWDEMNVLAHGLLQLGQGLREHAERTRSQLSALERRLSACGSACQGTEGSTDLPLAPESRVDPEVLHSLQTQLKAQNSRIQQLFHKVAQQQRHLEKQHLRIQHLQSQFGLLDHKHLDHEVAKPARRKRLPEMAQPVDPAHNVSRLHRLPRDCQELFQVGERQSGLFEIQPQGSPPFLVNCKMTSDGGWTVIQRRHDGSVDFNRPWEAYKAGFGDPHGEFWLGLEKVHSITGDRNSRLAVQLRDWDGNAELLQFSVHLGGEDTAYSLQLTAPVAGQLGATTVPPSGLSVPFSTWDQDHDLRRDKNCAKSLSGGWWFGTCSHSNLNGQYFRSIPQQRQKLKKGIFWKTWRGRYYPLQATTMLIQPMAAEAAS
notes: ANGPTL4, human, circulating protein of donor serum precipitated or captured with an N-terminal ANGPTL4 antibody; Full-length or N-terminal fragment; also called active ANGPTL4; source: endogenous, human serum
